# Assay results published in US11903397B2, “Hay preservative and methods for preservation of hay” (DANSTAR FERMENT AG, priority 2014, dated 2024).
# Test: Fermentation product of alfalfa hay (Example 2)
smiles,measurement,setting,value
"CCC(=O)O [BPA, Propionic Acid]",pH,day 0,6.07^c
same,LA,day 90,0.49 g/kg DM
same,pH,day 90,8.29^a
same,LA,day 180,0.17 g/kg DM
same,pH,day 180,7.80^a

# Marks after values point to notes of the source that are not given here.
